{"source": "patent US20170258746A1", "about": "“ACETIC ACID/THYMOL COMPOSITIONS AND THEIR USE IN THE TREATMENT OF ONYCHOMYCOSIS” (Dr. Paul's Enterprises, LLC, priority 2008, published 2017)", "origin": "cited, not measured here", "system": "onychomycosis", "details": "oral, Arch. Dermatol. 134(12) (December 1998)", "note": "At least one compound was matched to its structure with a doubt left."}
{"molecule": "CCC(C)n1ncn(-c2ccc(N3CCN(c4ccc(OCC5COC(Cn6cncn6)(c6ccc(Cl)cc6Cl)O5)cc4)CC3)cc2)c1=O", "note": "(stereo not shown) [itraconazole]", "values": [{"measurement": "disease-free nail, % of patients", "result": "25-40%"}]}
